Holding throughout (assay): two-hybrid; ProQuest Two-Hybrid System with Gateway Technology; full-length cDNAs in bait (pDEST32) and prey (pDEST22) vectors; yeast strain MaV203
For experiment [1], the target named is T1, OsS1Fa2 (site 1 binding factor a2) (rice (Oryza sativa)) (UniProt Q7XLX6).
T1 sequence: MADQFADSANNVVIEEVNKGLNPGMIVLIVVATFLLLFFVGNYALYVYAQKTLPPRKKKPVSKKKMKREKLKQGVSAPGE

Experiment [2] deals with T2, OsS1Fa1 (site 1 binding factor a1) (rice (Oryza sativa)) (UniProt P42553).
T2 sequence: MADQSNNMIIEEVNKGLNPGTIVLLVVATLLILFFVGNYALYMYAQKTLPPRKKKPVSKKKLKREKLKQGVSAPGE

The target in experiment [3] is T3, OsMIF2 (mini zinc finger 2) (rice (Oryza sativa)) (UniProt B9GBM3).
T3 sequence: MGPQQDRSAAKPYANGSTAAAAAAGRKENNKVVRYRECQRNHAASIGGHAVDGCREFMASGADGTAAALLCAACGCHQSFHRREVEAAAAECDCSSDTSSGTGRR

Experiment [4] has as its target T4, OsbZIP58 (bZIP transcription factor 58) (rice (Oryza sativa)) (UniProt Q6ZLB0).
T4 sequence: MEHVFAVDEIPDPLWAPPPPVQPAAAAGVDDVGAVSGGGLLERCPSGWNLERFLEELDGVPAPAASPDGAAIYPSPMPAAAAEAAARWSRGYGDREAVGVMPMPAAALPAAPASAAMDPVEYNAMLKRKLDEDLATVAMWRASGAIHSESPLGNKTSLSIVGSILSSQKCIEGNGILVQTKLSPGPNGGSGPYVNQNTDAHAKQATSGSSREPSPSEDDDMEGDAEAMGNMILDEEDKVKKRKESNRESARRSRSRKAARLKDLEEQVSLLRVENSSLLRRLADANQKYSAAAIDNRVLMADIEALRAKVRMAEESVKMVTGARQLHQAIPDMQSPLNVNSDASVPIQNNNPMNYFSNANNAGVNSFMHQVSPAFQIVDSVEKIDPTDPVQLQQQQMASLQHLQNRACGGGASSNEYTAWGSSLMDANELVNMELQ

These are yes or no findings as the source states them, for the method shown.

Data on 4 molecules can be found in article PMC12431501.

B1: OsS1Fa1 (site 1 binding factor a1) (protein, UniProt P42553 1-76)
chain: MADQSNNMIIEEVNKGLNPGTIVLLVVATLLILFFVGNYALYMYAQKTLPPRKKKPVSKKKLKREKLKQGVSAPGE
On to B1, for which, in experiment [1], the binding entry is “no binding”.

B2: OsbZIP58 (bZIP transcription factor 58) (protein, UniProt Q6ZLB0 1-436)
chain: MEHVFAVDEIPDPLWAPPPPVQPAAAAGVDDVGAVSGGGLLERCPSGWNLERFLEELDGVPAPAASPDGAAIYPSPMPAAAAEAAARWSRGYGDREAVGVMPMPAAALPAAPASAAMDPVEYNAMLKRKLDEDLATVAMWRASGAIHSESPLGNKTSLSIVGSILSSQKCIEGNGILVQTKLSPGPNGGSGPYVNQNTDAHAKQATSGSSREPSPSEDDDMEGDAEAMGNMILDEEDKVKKRKESNRESARRSRSRKAARLKDLEEQVSLLRVENSSLLRRLADANQKYSAAAIDNRVLMADIEALRAKVRMAEESVKMVTGARQLHQAIPDMQSPLNVNSDASVPIQNNNPMNYFSNANNAGVNSFMHQVSPAFQIVDSVEKIDPTDPVQLQQQQMASLQHLQNRACGGGASSNEYTAWGSSLMDANELVNMELQ
Turning to B2, the binding result in experiment [2] and in experiment [1] was “no binding” each time.

B3: OsMIF1 (mini zinc finger 1) (protein, UniProt Q2RB28 1-105)
chain: MGPQQDRSAAKPYANGSTAAAAAAGRKENNKVVRYRECQRNHAASIGGHAVDGCREFMASGAEGTAAALLCAACGCHRSFHRREVEAAAAECDCSSDTSSGTGRR
With B3, the binding result in experiment [3], in experiment [2], in experiment [4] and in experiment [1] was “no binding” throughout.

B4: OsMIF2 (mini zinc finger 2) (protein, UniProt B9GBM3 1-105)
chain: MGPQQDRSAAKPYANGSTAAAAAAGRKENNKVVRYRECQRNHAASIGGHAVDGCREFMASGADGTAAALLCAACGCHQSFHRREVEAAAAECDCSSDTSSGTGRR
B4: the binding entry in experiment [2], in experiment [4] and in experiment [1] was “no binding” in each case.
